Data source: PubChem BioAssay AID1508597 (Cure First, 2020)
This is an unselected part of the about 2,100 reagents, in one setting of the screen. 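Calls flag viability under 80% in either arm, not effects specific to rucaparib; the reference for percent is not stated.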 Some reagents were tested in more than one well and are listed for each. Not given: the 100% reference.

- Purpose: 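Knock-downs altering ovarian cancer cell survival with or without PARP inhibitor rucaparib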 (primary screen)
- Cells: human ovarian carcinoma lines grown from tumours: OCI-P5x (papillary serous) and OCI-C5x (clear cell)
- Knock-down reagent: siRNA pool against human genes, 1.25 pmol siRNA per well
- Time to read-out: 72 h or 96 h, depending on the cell culture
- Treatment: rucaparib 20 µM (about IC30) or vehicle, present until read-out
- Rucaparib or vehicle: Vehicle
- Cell line: OCI-C5x (clear cell)
- Detection: 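ATP luminescence measured at 72 or 96 h according to the culture, then normalised and expressed as percent viability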
- Direction: viability, normalised: higher = more viable cells remaining
- Call rule: 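Active when normalised viability falls below 80 percent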
- Calls: active = viability under 80%; inactive = viability 80% or more

gene,technical replicate,"viability, normalised (%)",call
DUT,1,46.3,active
DUT,2,44.3,active
DUT,3,36.4,active
RFK,1,44.5,active
RFK,2,58.4,active
RFK,3,43.9,active
MMS22L,1,95.9,inactive
MMS22L,2,58.6,active
MMS22L,3,51,active
DDX4,1,35.7,active
DDX4,2,41.2,active
DDX4,3,36.9,active
FGFR2,1,59.9,active
FGFR2,1,33.8,active
FGFR2,2,48.2,active
FGFR2,2,61.1,active
FGFR2,3,43.3,active
FGFR2,3,44.3,active
AKT2,1,70.1,active
AKT2,2,75.9,active
AKT2,3,61,active
ULK1,1,57,active
ULK1,2,44.8,active
ULK1,3,61.3,active
PDE3B,1,59.1,active
PDE3B,2,55.8,active
PDE3B,3,49.8,active
MED13,1,70.5,active
MED13,2,56,active
MED13,3,84.2,inactive
ERCC6,1,54.7,active
ERCC6,2,53.7,active
ERCC6,3,52.2,active
DDX5,1,36.6,active
DDX5,1,48.1,active
DDX5,2,75.4,active
DDX5,2,36.4,active
DDX5,3,59.5,active
DDX5,3,51.2,active
ACTL6B,1,50.3,active
ACTL6B,2,38.7,active
ACTL6B,3,46.1,active
UHRF2,1,79.2,active
UHRF2,2,41.9,active
UHRF2,3,68.8,active
LPP,1,73.2,active
LPP,2,66.1,active
LPP,3,57,active
CHEK2,1,47.1,active
CHEK2,1,68.5,active
CHEK2,2,67,active
CHEK2,2,57.7,active
CHEK2,3,63.9,active
CHEK2,3,68.9,active
TAF3,1,45,active
TAF3,2,55.3,active
TAF3,3,41.4,active

Ordered by “viability, normalised (%)” (high to low): some entries from above
gene,technical replicate,"viability, normalised (%)",call
DUT,1,46.3,active
DUT,2,44.3,active
DUT,3,36.4,active
